Assay results taken from PMC4692527.

T1: M13 phage-displayed PEP2 (Class II clones)
T1 sequence: VENKTRYHDREV

T2: M13 phage-displayed PEP3 (Class III clone)
T2 sequence: HEGAWHNYARSV

T3: M13 phage-displayed PEP1 (Class I clones)
T3 sequence: SYLPETIYEYRL

T4: M13 phage-displayed PEP4 (Class IV clone)
T4 sequence: SNGRVAD


Assays:
[1] = molecular target: T1, M13 phage-displayed PEP2 (Class II clones); assay: far-Western, overlay or dot blot; M13 phage clones adsorbed onto nitrocellulose and hybridized to purified His-tagged FvTox1; FvTox1 detected with an anti-His antibody; only the binder purified
[2] = molecular target: T2, M13 phage-displayed PEP3 (Class III clone); assay: as above
[3] = molecular target: T3, M13 phage-displayed PEP1 (Class I clones); assay: as above
[4] = molecular target: T4, M13 phage-displayed PEP4 (Class IV clone); assay: as above
[5] = molecular target: FvTox1 (His-tagged at C-terminus), expressed in an insect cell line (Fusarium virguliforme); assay: far-Western, overlay or dot blot; 3 μl FvTox1 (100 ng/μl) dried on nitrocellulose strips; incubated overnight at 4°C with a phage clone (1×10^14 pfu) in PBS; detected with anti-M13 monoclonal antibody; both purified

Molecule | binding [5] | also measured
FvTox1 (His-tagged at C-terminus), expressed in an insect cell line (Fusarium virguliforme) | – | binding [1]: binds; binding [2]: binds; binding [3]: binds; binding [4]: binds
SYLPETIYEYRL [M13 phage-displayed PEP1 (Class I clones)] | binds | –
VENKTRYHDREV [M13 phage-displayed PEP2 (Class II clones)] | binds | –
HEGAWHNYARSV [M13 phage-displayed PEP3 (Class III clone)] | binds | –
SNGRVAD [M13 phage-displayed PEP4 (Class IV clone)] | binds | –

Results are given in words; binding and its absence hold for the method and conditions named. Binding calls can cover weak binding; strength is not graded here.
